Assay results: paper doi:10.1101/2022.07.24.501325
Results are given in words; binding and its absence hold for the method and conditions named. A result given as binding can be weak or reduced; the word gives no strength.

By UniProt entry, the sequences of proteins in these tests, tags left out. Where a name states a change or a piece, a line headed by the entry shows the natural chain unless it says otherwise.
UniProt Q9NZN8: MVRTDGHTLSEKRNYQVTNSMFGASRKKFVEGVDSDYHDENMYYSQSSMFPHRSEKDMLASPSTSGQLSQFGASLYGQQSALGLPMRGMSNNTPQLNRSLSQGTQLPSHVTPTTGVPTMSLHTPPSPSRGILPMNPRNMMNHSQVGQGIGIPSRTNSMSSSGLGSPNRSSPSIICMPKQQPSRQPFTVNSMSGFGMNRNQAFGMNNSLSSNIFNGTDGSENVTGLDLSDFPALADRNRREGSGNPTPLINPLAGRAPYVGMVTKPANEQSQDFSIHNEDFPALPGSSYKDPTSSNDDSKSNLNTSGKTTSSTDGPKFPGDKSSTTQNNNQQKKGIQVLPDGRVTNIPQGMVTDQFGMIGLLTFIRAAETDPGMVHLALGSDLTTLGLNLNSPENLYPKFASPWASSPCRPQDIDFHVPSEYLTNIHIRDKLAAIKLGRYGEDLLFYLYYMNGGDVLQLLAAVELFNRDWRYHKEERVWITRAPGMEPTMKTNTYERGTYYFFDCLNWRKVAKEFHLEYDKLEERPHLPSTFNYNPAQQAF
UniProt Q9ULM6: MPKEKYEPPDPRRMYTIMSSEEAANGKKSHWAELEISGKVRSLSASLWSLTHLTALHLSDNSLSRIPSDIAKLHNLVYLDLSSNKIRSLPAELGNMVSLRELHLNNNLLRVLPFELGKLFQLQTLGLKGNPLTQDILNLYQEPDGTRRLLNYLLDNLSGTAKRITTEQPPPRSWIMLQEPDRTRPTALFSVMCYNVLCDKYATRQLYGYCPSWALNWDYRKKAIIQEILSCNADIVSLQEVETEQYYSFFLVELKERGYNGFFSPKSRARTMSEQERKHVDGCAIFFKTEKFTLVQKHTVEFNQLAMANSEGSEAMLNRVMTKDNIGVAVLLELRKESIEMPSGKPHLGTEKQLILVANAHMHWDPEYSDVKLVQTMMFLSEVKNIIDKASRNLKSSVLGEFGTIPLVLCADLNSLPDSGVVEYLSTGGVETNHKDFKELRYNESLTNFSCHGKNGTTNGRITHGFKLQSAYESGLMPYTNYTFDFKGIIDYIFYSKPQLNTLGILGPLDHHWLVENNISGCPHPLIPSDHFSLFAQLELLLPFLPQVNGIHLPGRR
UniProt Q92600: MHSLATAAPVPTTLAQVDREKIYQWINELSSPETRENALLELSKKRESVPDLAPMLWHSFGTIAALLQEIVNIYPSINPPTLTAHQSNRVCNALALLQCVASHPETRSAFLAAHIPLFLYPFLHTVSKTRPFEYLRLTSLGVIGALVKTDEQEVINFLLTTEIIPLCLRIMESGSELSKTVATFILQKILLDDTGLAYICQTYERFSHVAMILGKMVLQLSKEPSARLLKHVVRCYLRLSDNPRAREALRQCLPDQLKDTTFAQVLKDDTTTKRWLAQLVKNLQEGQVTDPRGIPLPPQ
UniProt A5YKK6: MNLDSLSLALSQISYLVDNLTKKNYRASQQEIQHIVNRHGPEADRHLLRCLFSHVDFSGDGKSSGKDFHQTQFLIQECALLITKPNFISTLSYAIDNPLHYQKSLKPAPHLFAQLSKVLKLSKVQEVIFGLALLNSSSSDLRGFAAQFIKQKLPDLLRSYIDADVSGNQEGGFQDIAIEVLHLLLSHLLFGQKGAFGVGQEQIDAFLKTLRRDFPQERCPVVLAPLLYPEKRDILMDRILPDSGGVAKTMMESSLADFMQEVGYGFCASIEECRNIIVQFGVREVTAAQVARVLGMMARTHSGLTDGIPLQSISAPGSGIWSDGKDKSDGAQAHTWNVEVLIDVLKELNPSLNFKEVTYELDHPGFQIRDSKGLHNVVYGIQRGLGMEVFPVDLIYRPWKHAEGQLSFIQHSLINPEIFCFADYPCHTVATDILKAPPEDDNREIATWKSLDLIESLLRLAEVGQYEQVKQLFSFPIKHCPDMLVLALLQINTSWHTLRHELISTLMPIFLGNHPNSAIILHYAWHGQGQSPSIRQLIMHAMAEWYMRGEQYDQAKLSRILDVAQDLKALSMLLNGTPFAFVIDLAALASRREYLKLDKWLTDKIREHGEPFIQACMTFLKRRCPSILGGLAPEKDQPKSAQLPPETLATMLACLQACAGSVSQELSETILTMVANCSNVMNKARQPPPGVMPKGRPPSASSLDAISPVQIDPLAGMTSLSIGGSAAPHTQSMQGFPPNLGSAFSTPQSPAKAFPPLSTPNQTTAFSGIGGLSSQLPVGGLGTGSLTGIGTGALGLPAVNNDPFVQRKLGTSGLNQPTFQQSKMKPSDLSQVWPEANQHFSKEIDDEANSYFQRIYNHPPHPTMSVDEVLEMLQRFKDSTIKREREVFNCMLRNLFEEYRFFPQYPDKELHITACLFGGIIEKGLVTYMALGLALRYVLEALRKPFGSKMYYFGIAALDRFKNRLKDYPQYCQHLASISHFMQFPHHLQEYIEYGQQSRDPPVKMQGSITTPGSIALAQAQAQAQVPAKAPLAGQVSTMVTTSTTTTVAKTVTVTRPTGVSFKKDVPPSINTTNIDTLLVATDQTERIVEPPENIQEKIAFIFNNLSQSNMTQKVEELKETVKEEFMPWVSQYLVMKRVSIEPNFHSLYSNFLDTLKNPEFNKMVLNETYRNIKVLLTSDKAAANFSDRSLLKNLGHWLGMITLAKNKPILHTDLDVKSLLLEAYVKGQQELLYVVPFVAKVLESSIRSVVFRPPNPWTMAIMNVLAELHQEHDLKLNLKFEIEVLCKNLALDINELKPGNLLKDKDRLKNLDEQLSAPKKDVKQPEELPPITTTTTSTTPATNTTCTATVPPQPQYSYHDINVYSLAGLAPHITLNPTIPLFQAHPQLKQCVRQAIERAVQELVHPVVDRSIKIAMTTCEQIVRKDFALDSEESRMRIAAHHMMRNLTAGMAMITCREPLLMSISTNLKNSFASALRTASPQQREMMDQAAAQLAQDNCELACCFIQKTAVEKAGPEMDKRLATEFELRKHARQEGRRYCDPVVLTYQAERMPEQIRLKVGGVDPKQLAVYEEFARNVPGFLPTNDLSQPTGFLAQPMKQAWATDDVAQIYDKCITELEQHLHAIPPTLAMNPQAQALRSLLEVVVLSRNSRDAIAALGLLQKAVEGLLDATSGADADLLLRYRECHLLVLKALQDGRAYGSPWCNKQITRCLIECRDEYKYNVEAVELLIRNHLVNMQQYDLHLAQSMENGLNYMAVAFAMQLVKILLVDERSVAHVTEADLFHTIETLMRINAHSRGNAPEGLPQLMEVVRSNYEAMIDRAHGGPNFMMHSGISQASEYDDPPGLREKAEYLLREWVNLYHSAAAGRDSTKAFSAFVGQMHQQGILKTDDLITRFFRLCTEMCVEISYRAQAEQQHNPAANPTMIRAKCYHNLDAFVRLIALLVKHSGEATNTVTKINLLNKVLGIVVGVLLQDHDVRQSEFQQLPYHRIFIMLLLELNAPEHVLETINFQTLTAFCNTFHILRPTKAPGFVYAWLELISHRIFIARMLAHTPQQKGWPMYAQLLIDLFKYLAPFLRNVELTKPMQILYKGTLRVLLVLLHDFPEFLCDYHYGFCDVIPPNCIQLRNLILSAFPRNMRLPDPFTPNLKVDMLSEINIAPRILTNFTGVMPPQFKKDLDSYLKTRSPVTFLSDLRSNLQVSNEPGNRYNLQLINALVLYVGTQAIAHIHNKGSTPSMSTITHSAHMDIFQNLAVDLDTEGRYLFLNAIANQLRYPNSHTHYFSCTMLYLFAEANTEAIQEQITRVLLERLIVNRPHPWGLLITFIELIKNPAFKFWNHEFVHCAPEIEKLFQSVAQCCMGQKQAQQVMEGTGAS
UniProt O75175: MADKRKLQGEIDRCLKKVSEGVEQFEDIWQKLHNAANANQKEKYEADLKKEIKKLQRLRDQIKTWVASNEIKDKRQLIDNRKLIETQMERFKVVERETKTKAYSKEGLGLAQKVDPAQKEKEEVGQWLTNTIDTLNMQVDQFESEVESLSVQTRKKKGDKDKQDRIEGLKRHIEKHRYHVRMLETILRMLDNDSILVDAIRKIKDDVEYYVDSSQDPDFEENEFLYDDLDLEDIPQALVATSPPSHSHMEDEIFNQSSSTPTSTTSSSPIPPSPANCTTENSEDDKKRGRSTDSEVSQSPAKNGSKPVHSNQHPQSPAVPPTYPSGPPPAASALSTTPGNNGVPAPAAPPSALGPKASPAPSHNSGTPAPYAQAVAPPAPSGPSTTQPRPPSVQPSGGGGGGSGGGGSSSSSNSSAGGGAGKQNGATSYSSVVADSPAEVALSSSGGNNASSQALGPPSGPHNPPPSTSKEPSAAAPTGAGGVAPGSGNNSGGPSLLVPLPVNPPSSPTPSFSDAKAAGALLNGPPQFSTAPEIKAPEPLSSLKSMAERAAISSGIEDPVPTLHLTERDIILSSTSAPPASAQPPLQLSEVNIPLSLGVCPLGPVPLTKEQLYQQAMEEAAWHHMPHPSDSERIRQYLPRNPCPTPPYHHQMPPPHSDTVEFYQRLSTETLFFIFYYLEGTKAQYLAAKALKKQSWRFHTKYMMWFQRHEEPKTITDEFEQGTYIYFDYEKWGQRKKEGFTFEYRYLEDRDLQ

Assays:
Experiment in all cases: cross-linking
[1] = target: CNOT2 subunit of human CCR4-NOT (human) (UniProt Q9NZN8)
[2] = target: CNOT6 subunit of human CCR4-NOT (human) (UniProt Q9ULM6)
[3] = target: CNOT9 subunit of human CCR4-NOT (human) (UniProt Q92600)
[4] = target: CNOT1 subunit of human CCR4-NOT (human) (UniProt A5YKK6)

Measured: binding

CNOT3 subunit of human CCR4-NOT (from UniProt O75175)
binds: [1] | [2] | [3] | [4]
